Values from PubChem BioAssay AID686938 (Drosophila RNAi Screening Center, 2013).
In all, the deposit lists about 23,000 reagents; this is an unselected part of those with a known target gene and a result. Over the whole deposit, 75 (0.33%) are marked active. 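Raw plate signals without normalisation; calls rest on plate z-scores that were not deposited; ratio present for only 364 wells.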 A plus sign joins genes that one reagent is predicted to hit. Not given: the dose of the treatment.

- Purpose: 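Fly genes required for calcium entry once internal stores are emptied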 (primary screen)
- Cells: Drosophila S2R+ cells
- Reagents: long dsRNA against Drosophila genes, about 0.25 µg dsRNA per well, roughly 10,000 cells
- Duration: 5 days of knock-down before the calcium assay
- Challenge: thapsigargin (SERCA pump blocker) to empty calcium stores; entry signal taken 4 min after adding it
- Read-out: 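Duplicate raw fluo-4 intensities per well from a plate reader, at rest and four minutes after thapsigargin emptied calcium stores; entry-to-rest ratio filled for only some wells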
- Reading the numbers: calcium entry signal: higher = stronger calcium signal after store depletion; entry to resting ratio: higher = more calcium entry relative to resting level; resting calcium signal: higher = higher resting calcium signal
- Active means: 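Hit if the duplicate-averaged plate z-score for entry over resting signal is under −3; wells with weak total dye signal (Fmax z < −2) or more than 5 off-targets removed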
- Calls: active = strongly reduced calcium entry; inactive = no strong reduction

{"target": "CG3165 (GeneID 33503)", "DRSC id": "DRSC00573", "calcium entry signal, replicate 1 (fluorescence units)": 3.98e7, "resting calcium signal, replicate 1 (fluorescence units)": 1.98e7, "call": "inactive"}
{"target": "Prp19 (GeneID 37123)", "DRSC id": "DRSC07434", "calcium entry signal, replicate 1 (fluorescence units)": 2.68e7, "calcium entry signal, replicate 2 (fluorescence units)": 3.34e7, "resting calcium signal, replicate 1 (fluorescence units)": 1.69e7, "resting calcium signal, replicate 2 (fluorescence units)": 1.90e7, "call": "inactive"}
{"target": "Smr (GeneID 32225)", "DRSC id": "DRSC19495", "calcium entry signal, replicate 1 (fluorescence units)": 1.86e7, "calcium entry signal, replicate 2 (fluorescence units)": 2.11e7, "resting calcium signal, replicate 1 (fluorescence units)": 1.19e7, "resting calcium signal, replicate 2 (fluorescence units)": 1.26e7, "call": "inactive"}
{"target": "Smr (GeneID 32225)", "DRSC id": "DRSC20288", "calcium entry signal, replicate 1 (fluorescence units)": 2.14e7, "calcium entry signal, replicate 2 (fluorescence units)": 2.91e7, "resting calcium signal, replicate 1 (fluorescence units)": 1.43e7, "resting calcium signal, replicate 2 (fluorescence units)": 1.83e7, "call": "inactive"}
{"target": "Smr (GeneID 32225)", "DRSC id": "DRSC22986", "calcium entry signal, replicate 1 (fluorescence units)": 5.09e7, "calcium entry signal, replicate 2 (fluorescence units)": 3.17e7, "resting calcium signal, replicate 1 (fluorescence units)": 2.86e7, "resting calcium signal, replicate 2 (fluorescence units)": 1.54e7, "call": "inactive"}
{"target": "VAChT + ChAT", "DRSC id": "DRSC13312", "calcium entry signal, replicate 1 (fluorescence units)": 3.45e7, "calcium entry signal, replicate 2 (fluorescence units)": 3.38e7, "resting calcium signal, replicate 1 (fluorescence units)": 1.90e7, "resting calcium signal, replicate 2 (fluorescence units)": 1.57e7, "call": "inactive"}
{"target": "Rbm13 (GeneID 31818)", "DRSC id": "DRSC17749", "calcium entry signal, replicate 1 (fluorescence units)": 1.83e7, "calcium entry signal, replicate 2 (fluorescence units)": 2.14e7, "resting calcium signal, replicate 1 (fluorescence units)": 1.02e7, "resting calcium signal, replicate 2 (fluorescence units)": 1.21e7, "call": "inactive"}
{"target": "CG1421 (GeneID 35432)", "DRSC id": "DRSC03707", "calcium entry signal, replicate 1 (fluorescence units)": 3.03e7, "calcium entry signal, replicate 2 (fluorescence units)": 4.62e7, "resting calcium signal, replicate 1 (fluorescence units)": 1.52e7, "resting calcium signal, replicate 2 (fluorescence units)": 2.04e7, "call": "inactive"}
{"target": "CG43345 + CG43346", "DRSC id": "DRSC03164", "calcium entry signal, replicate 1 (fluorescence units)": 3.58e7, "resting calcium signal, replicate 1 (fluorescence units)": 1.72e7, "call": "inactive"}
{"target": "CG12795 (GeneID 33561)", "DRSC id": "DRSC00354", "calcium entry signal, replicate 1 (fluorescence units)": 3.12e7, "calcium entry signal, replicate 2 (fluorescence units)": 3.04e7, "resting calcium signal, replicate 1 (fluorescence units)": 1.60e7, "resting calcium signal, replicate 2 (fluorescence units)": 1.48e7, "call": "inactive"}
{"target": "Vha68-2 (GeneID 45012)", "DRSC id": "DRSC02721", "calcium entry signal, replicate 1 (fluorescence units)": 3.44e7, "calcium entry signal, replicate 2 (fluorescence units)": 4.39e7, "resting calcium signal, replicate 1 (fluorescence units)": 2.25e7, "resting calcium signal, replicate 2 (fluorescence units)": 2.50e7, "call": "active"}
{"target": "Uba4 (GeneID 34187)", "DRSC id": "DRSC02194", "calcium entry signal, replicate 1 (fluorescence units)": 3.36e7, "calcium entry signal, replicate 2 (fluorescence units)": 4.89e7, "resting calcium signal, replicate 1 (fluorescence units)": 1.67e7, "resting calcium signal, replicate 2 (fluorescence units)": 2.10e7, "call": "inactive"}
{"target": "SKIP (GeneID 42601)", "DRSC id": "DRSC14713", "calcium entry signal, replicate 1 (fluorescence units)": 3.47e7, "calcium entry signal, replicate 2 (fluorescence units)": 3.94e7, "resting calcium signal, replicate 1 (fluorescence units)": 6.23e7, "resting calcium signal, replicate 2 (fluorescence units)": 1.88e7, "call": "inactive"}
{"target": "SKIP (GeneID 42601)", "DRSC id": "DRSC14714", "calcium entry signal, replicate 1 (fluorescence units)": 4.32e7, "calcium entry signal, replicate 2 (fluorescence units)": 4.54e7, "resting calcium signal, replicate 1 (fluorescence units)": 6.78e7, "resting calcium signal, replicate 2 (fluorescence units)": 2.11e7, "call": "inactive"}
{"target": "SKIP (GeneID 42601)", "DRSC id": "DRSC15864", "calcium entry signal, replicate 1 (fluorescence units)": 4.70e7, "calcium entry signal, replicate 2 (fluorescence units)": 4.42e7, "resting calcium signal, replicate 1 (fluorescence units)": 4.91e7, "resting calcium signal, replicate 2 (fluorescence units)": 2.09e7, "call": "inactive"}
{"target": "SKIP (GeneID 42601)", "DRSC id": "DRSC16195", "calcium entry signal, replicate 1 (fluorescence units)": 2.94e7, "calcium entry signal, replicate 2 (fluorescence units)": 4.94e7, "resting calcium signal, replicate 1 (fluorescence units)": 1.46e7, "resting calcium signal, replicate 2 (fluorescence units)": 2.46e7, "call": "inactive"}
{"target": "SKIP (GeneID 42601)", "DRSC id": "DRSC16196", "calcium entry signal, replicate 1 (fluorescence units)": 4.18e7, "calcium entry signal, replicate 2 (fluorescence units)": 4.19e7, "resting calcium signal, replicate 1 (fluorescence units)": 5.93e7, "resting calcium signal, replicate 2 (fluorescence units)": 2.04e7, "call": "inactive"}
{"target": "CG16896 (GeneID 37977)", "DRSC id": "DRSC04284", "calcium entry signal, replicate 1 (fluorescence units)": 4.48e7, "resting calcium signal, replicate 1 (fluorescence units)": 2.33e7, "call": "inactive"}
{"target": "Nmdar2 (GeneID 31107)", "DRSC id": "DRSC18183", "calcium entry signal, replicate 1 (fluorescence units)": 3.97e7, "calcium entry signal, replicate 2 (fluorescence units)": 4.38e7, "entry to resting ratio": 2.1, "resting calcium signal, replicate 1 (fluorescence units)": 1.91e7, "resting calcium signal, replicate 2 (fluorescence units)": 1.70e7, "call": "inactive"}
{"target": "Nmdar2 (GeneID 31107)", "DRSC id": "DRSC18511", "calcium entry signal, replicate 1 (fluorescence units)": 3.59e7, "calcium entry signal, replicate 2 (fluorescence units)": 4.48e7, "entry to resting ratio": 2, "resting calcium signal, replicate 1 (fluorescence units)": 1.84e7, "resting calcium signal, replicate 2 (fluorescence units)": 1.83e7, "call": "inactive"}
{"target": "Nmdar2 (GeneID 31107)", "DRSC id": "DRSC18569", "calcium entry signal, replicate 1 (fluorescence units)": 3.50e7, "calcium entry signal, replicate 2 (fluorescence units)": 4.53e7, "entry to resting ratio": 2, "resting calcium signal, replicate 1 (fluorescence units)": 1.73e7, "resting calcium signal, replicate 2 (fluorescence units)": 1.90e7, "call": "inactive"}

Ordered by “resting calcium signal, replicate 2 (fluorescence units)” (lowest first): some entries from above.
{"target": "Nmdar2 (GeneID 31107)", "DRSC id": "DRSC18511", "calcium entry signal, replicate 1 (fluorescence units)": 3.59e7, "calcium entry signal, replicate 2 (fluorescence units)": 4.48e7, "entry to resting ratio": 2, "resting calcium signal, replicate 1 (fluorescence units)": 1.84e7, "resting calcium signal, replicate 2 (fluorescence units)": 1.83e7, "call": "inactive"}
{"target": "Nmdar2 (GeneID 31107)", "DRSC id": "DRSC18569", "calcium entry signal, replicate 1 (fluorescence units)": 3.50e7, "calcium entry signal, replicate 2 (fluorescence units)": 4.53e7, "entry to resting ratio": 2, "resting calcium signal, replicate 1 (fluorescence units)": 1.73e7, "resting calcium signal, replicate 2 (fluorescence units)": 1.90e7, "call": "inactive"}
